These are yes or no findings as the source states them, for the method shown. Some entries that bind do so weakly or less than the wild type.
Target: T1, hSIRT1 catalytic core, residues 229–516 (human, UniProt Q96EB6 229-516)
T1 sequence (looked up): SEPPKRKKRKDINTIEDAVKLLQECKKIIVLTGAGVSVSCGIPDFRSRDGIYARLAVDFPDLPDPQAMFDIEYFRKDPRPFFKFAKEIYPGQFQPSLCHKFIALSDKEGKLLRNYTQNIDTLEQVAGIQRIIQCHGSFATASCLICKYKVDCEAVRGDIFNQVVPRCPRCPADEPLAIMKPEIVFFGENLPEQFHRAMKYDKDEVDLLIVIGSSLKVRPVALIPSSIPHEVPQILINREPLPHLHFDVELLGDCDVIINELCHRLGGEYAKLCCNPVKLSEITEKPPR
Test: HDX-MS; 1.36 mg/ml SIRT1 (229–516) ± 1.67 mM CTR peptide, 90% D2O, 200 mM phosphate pH read 7.0; 0 °C, 15-5,000 s; both purified

binding: binds
Substance: human C-terminal regulatory segment (CTR) peptide of SIRT1 (from UniProt Q96EB6 641-665)
